{"source": "paper PMC12663132", "about": "“Assessment of cytotoxicity of some synthetic compounds against breast carcinoma spheroids with subsequent analysis of pro-apoptotic and gene expression” (Scientific Reports, 2025)"}
{"tested_on": "MCF7 cell line", "assay": "Pro-apoptotic activity, M30 Cytodeath ELISA (CK18-Asp396)", "assay_type": "cell-based, human", "settings": "MCF7 monolayers, 50 µM, 24 h", "method": "(§1) The pro-apoptotic activity is measured as fold increase of the spontaneous apoptosis occurred in the DMSO treated negative control ± standard deviation.\n(§2) The cutoff was determined as fourfold increase in the apoptosis signal of the negative control.\n(§3) The accumulation of CK18-Asp396 in treated MCF7 cell cultures was quantified using the M-30 Cytodeath® ELISA kit according to the manufacturer’s instructions. Briefly, the MCF7 cell line monolayers were exposed to the chemical compounds at a concentration of 50 µM. Following 24 h of incubation, the culture medium was supplemented with 0.1% NP40. Subsequently, aliquots of 25 µL from each well, containing CK18 released into the medium from attached and floating cells and cell fragments, were subjected to the ELISA assay. Cleaved CK18 levels were determined by measuring the absorbance at 450 nm[46]."}
{"smiles": "Cc1cccc(C)c1NC(=O)COC(=S)c1sc2ccccc2c1Cl", "note": "[A07, 2-(2,6-dimethylanilino)-2-oxoethyl 3-chlorobenzo[b] thiophene-2-carbothioate]", "OD 450": 0.3289}
{"smiles": "Nc1ccccc1SCC=CCSc1ccccc1N", "note": "[C02, 2-({4-[(2-aminophenyl)thio]but-2-enyl}thio)aniline]", "OD 450": 0.3635}
{"smiles": "O=C(NCCc1c[nH]c2ccccc12)Nc1ccc(Cl)cc1", "note": "[D08, N-(4-chlorophenyl)-N'-[2-(1H-indol-3-yl)ethyl]urea]", "OD 450": 0.1933}
{"smiles": "CCOC(=O)c1c(NS(=O)(=O)c2cccc3nsnc23)sc(C)c1C", "note": "[F03, ethyl 2-[(2,1,3-benzothiadiazol-4-ylsulfonyl)amino]-4,5-dimethylthiophene-3-carboxylate]", "OD 450": 0.439}
{"smiles": "COc1ccc(OCCC(=O)NNC(=S)Nc2cc(Cl)ccc2Cl)cc1", "note": "[F06, N1-(2,5-dichlorophenyl)-2-[3-(4-methoxyphenoxy)propanoyl]hydrazine-1-carbothioamide]", "OD 450": 0.5655}
{"smiles": "COC(=O)c1cc(C=C(C#N)C#N)c(OC)cc1OC", "note": "[H09, methyl 5-(2,2-dicyanovinyl)-2,4-dimethoxybenzoate]", "OD 450": 0.2311}
{"tested_on": "MCF7 cell line", "assay": "Pro-apoptotic activity, M30 Cytodeath ELISA (CK18-Asp396)", "assay_type": "cell-based, human", "settings": "MCF7 monolayers, cisplatin 40 µM, 24 h", "method": "as §1, §2, §3"}
{"smiles": "N.N.[Cl][Pt][Cl]", "note": "[cisplatin, reference compound]", "OD 450": 0.5231}
